Measured values reported in article PMC3148253.
No constants are given. Whether binding was seen depends on the method and setting. In cells and extracts the contact can be indirect. Some entries that bind do so weakly or less than the wild type. Where a sequence is shown, tags or fusion partners need not be part of it.

Sequences of proteins named here, by UniProt entry; tags and fusion partners are left off.
UniProt P05549: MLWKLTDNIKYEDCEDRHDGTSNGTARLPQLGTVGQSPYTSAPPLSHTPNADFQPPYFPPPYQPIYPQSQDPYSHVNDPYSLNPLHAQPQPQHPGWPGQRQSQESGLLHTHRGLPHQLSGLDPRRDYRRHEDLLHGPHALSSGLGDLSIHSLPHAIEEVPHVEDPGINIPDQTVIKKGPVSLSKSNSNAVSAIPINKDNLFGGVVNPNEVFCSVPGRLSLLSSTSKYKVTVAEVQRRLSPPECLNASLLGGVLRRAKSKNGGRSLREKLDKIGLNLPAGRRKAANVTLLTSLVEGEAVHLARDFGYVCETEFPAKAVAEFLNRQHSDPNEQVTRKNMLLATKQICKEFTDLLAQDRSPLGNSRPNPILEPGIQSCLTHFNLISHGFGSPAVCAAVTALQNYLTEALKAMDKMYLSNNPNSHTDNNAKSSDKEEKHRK

T1: GFP-Aurora-A (human) (UniProt O14965)
T1 sequence: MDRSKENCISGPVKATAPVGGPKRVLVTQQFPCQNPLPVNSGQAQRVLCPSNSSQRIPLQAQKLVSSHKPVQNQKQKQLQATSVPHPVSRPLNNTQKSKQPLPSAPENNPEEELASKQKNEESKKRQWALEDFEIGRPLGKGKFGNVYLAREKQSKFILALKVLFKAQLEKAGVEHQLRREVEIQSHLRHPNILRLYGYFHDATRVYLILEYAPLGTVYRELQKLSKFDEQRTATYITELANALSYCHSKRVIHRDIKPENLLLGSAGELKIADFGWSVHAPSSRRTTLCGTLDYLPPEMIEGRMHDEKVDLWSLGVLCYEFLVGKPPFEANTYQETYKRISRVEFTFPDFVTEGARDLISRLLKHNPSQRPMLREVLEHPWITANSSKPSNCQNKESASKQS

T2: Aurora-A-GST fusion protein (human) (UniProt O14965)
T2 sequence: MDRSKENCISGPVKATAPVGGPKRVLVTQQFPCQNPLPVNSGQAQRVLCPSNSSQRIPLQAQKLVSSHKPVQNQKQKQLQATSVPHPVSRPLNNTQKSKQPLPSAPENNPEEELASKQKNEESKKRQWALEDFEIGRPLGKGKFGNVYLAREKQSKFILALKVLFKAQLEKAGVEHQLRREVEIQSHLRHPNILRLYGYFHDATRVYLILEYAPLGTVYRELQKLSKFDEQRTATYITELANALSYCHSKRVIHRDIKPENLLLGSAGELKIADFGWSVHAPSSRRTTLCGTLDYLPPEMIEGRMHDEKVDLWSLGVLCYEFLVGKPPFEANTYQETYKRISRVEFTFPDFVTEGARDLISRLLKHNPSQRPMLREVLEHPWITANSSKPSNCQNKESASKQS


How the values were obtained:
GFP-Aurora-A (human) = target: T1, GFP-Aurora-A (human); assay: co-IP; 1 mg cellular protein from KYSE150/GFP-Aurora-A cells incubated with 7.5 µg anti-Aurora-A or anti-AP-2α antibody for 6 h at 4°C, then overnight with protein A/G-agarose beads; washed six times with lysis buffer; immunoblot; mouse or rabbit IgG as control
[1] = target: T2, Aurora-A-GST fusion protein (human); assay: pull-down; Aurora-A-GST or GST alone bound to 15 µl glutathione-sepharose beads for 6 h at 4°C, incubated with protein extracts for 6 h at 4°C; washed 3-5 times with lysis buffer; Western blot for AP-2α; only the target purified
[2] = target: AP-2α (human (endogenous in KYSE150)) (UniProt P05549); assay: co-IP; 1 mg cellular protein from KYSE150/GFP-Aurora-A cells incubated with 7.5 µg anti-Aurora-A or anti-AP-2α antibody for 6 h at 4°C, then overnight with protein A/G-agarose beads; washed six times with lysis buffer; immunoblot; mouse or rabbit IgG as control

Row | binding (GFP-Aurora-A (human)) | binding [1] | binding [2] | Molecule
1 | binds | binds |  | AP-2α (from UniProt P05549 1-437)
2 |  |  | binds | GFP-Aurora-A (protein, UniProt O14965 1-403) MDRSKENCISGPVKATAPVGGPKRVLVTQQFPCQNPLPVNSGQAQRVLCPSNSSQRIPLQAQKLVSSHKPVQNQKQKQLQATSVPHPVSRPLNNTQKSKQPLPSAPENNPEEELASKQKNEESKKRQWALEDFEIGRPLGKGKFGNVYLAREKQSKFILALKVLFKAQLEKAGVEHQLRREVEIQSHLRHPNILRLYGYFHDATRVYLILEYAPLGTVYRELQKLSKFDEQRTATYITELANALSYCHSKRVIHRDIKPENLLLGSAGELKIADFGWSVHAPSSRRTTLCGTLDYLPPEMIEGRMHDEKVDLWSLGVLCYEFLVGKPPFEANTYQETYKRISRVEFTFPDFVTEGARDLISRLLKHNPSQRPMLREVLEHPWITANSSKPSNCQNKESASKQS
